Reference: PubChem BioAssay AID624291 (National Center for Advancing Translational Sciences (NCATS), 2012)
About 220 (0.063%) of roughly 350,000 compounds were called active. Inconclusive means that the source gave no clear call. Such entries were picked first, then a sample of the others. Calls come from the whole dose curve; as a rule, active = well fitted activation curve with a large enough effect; inconclusive = small, poorly fitted or top-dose-only effect; inactive = no such curve, though single readings can be large or run the other way. A potency beside an inconclusive call is a rough fit, not a confirmed value.

Assay: qHTS for Activators of Integrin-Mediated Alleviation for Muscular Dystrophy; note: nearly all actives have a fitted effect of over 60% in size;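 for activation: 100% = response of the positive control SU9516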
Conditions: alpha7betagal myoblasts, beta-gal FDG fluorescence, 48 h; activation: at 38.3 µM (top of the series)
Summary of the method: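 Alpha7betagal+/- myoblasts (passage 13) were plated 16-24 hr, then exposed to compounds (1:260 dilution of DMSO stock) for 48 hours at 37C. After MPER lysis, β-galactosidase reporter activity was read as FDG fluorescence (ex 480/em 540) after 30 minutes.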
Potency is the fitted concentration of half-maximal effect.

| Structure (SMILES) | Potency | activation |
| --- | --- | --- |
| CC(=O)c1cccc(NC(=O)N2CCCC(C(=O)c3cc(F)ccc3F)C2)c1 (stereo not given) | inconclusive: 0.891 µM [activator, partial curve, poor fit] | – |
| Cc1nc2ccccc2n1S(=O)(=O)c1ccc(S(=O)(=O)N2CCCCCC2)cc1 | inconclusive: 2 µM [activator, partial curve, poor fit] | – |
| Fc1ccc2c(c1)Sc1ccc(Cl)cc1CC2N1CCN(CCC2OCCO2)CC1 (stereo not given) | – | inactive: -47.7% |
| NC1=NN(c2cccc(C(=O)O)c2)C(=O)C1 | inconclusive: 12.6 µM [activator, partial curve, poor fit] | – |
| CCOC(=O)c1c(C)[nH]c(C)c1C(=O)COC(=O)/C=C/c1cccc([N+](=O)[O-])c1 | – | inactive: 4.11% |
| O=c1c(O[C@@H]2O[C@H](CO)[C@@H](O)[C@H](O)[C@H]2O)c(-c2ccc(O)cc2)oc2cc(O)cc(O)c12 | inconclusive: 5.01 µM [activator, single point] | – |
| CCOC(=O)c1c(C)cc(C)n2c1nc1ccccc12 | inconclusive: 5.01 µM [activator, partial curve, poor fit] | – |
| CCc1nc2oc3ccccc3c(=O)c2cc1C(=O)OC | – | inactive: 13% |
| COc1ccc2[nH]c3c(c2c1)CCN1C(=O)C(CC(=O)NCC24CC5CC(CC(C5)C2)C4)C[C@H](C(=O)N2CCOCC2)[C@@]31CCC1CCCC1 (stereo not given in full) | – | inactive: 6.31% |
| O=C(c1cc2cc(F)ccc2[nH]1)N1CCc2ccccc2C1 | inconclusive: 12.6 µM [activator, single point] | – |
| O=C(N/N=C/c1cccc([N+](=O)[O-])c1)c1cccs1 | – | inactive: 16.3% |
| O=C(Cc1ccccc1)Nc1ccc(NC(=O)c2ccc(Br)cc2)cc1 | – | inactive: -3.3% |
| Cc1ccc(S(=O)(=O)NNC(=O)c2cccc(O)c2)cc1 | inconclusive: 2.51 µM [activator, single point] | – |
| Cc1ccc(C2N(c3ccccc3)C(=O)N3CCCN23)cc1 (stereo not given) | inconclusive: 4.47 µM [activator, single point] | – |
| COc1ccc(Cn2c(=S)[nH]c3cc(C(=O)N4CCN(c5ccccc5)CC4)ccc3c2=O)cc1 | inconclusive: 31.6 µM [activator, partial curve, poor fit] | – |
| C1CCC2(CC1)C1=C(CCCC1)Nc1nnnn12 | inconclusive: 12.6 µM [activator, single point] | – |
| CCN(CC)S(=O)(=O)c1ccc(N2CCCC2)c(NC(=O)Cc2c(F)cccc2Cl)c1 | inconclusive: 5.01 µM [activator, single point] | – |
| CN(Cc1ccco1)C(=O)c1ccc(OC2CCN(Cc3ccccn3)CC2)cc1 | inconclusive: 3.55 µM [activator, single point] | – |
| CN(Cc1ccco1)S(=O)(=O)c1csc(C(N)=O)c1 | – | inactive: 12.7% |
| O=C(O)c1ccccc1/C=N/NC(=O)C1CCCC1 | inconclusive: 1.58 µM [activator, partial curve, poor fit] | – |
| O=S(=O)(c1ccccc1)c1nc(-c2ccc(F)cc2)oc1N1CCOCC1 | inconclusive: 2.82 µM [activator, single point] | – |
| CS(=O)(=O)N(Cc1ccccc1)c1ccc(C(=O)NCC2CCCO2)cc1 (stereo not given) | inconclusive: 28.2 µM [activator, single point] | – |
| CC(=O)Oc1ccc2c3c(c(=O)oc2c1C)CCCC3 | – | inactive: 23.8% |
| CN(NC(=O)c1ccccc1F)c1ncccc1[N+](=O)[O-] | inconclusive: 3.98 µM [activator, single point] | – |

| Structure (SMILES) | Potency | activation |
| --- | --- | --- |
| N#Cc1nc(COc2ccc(Cl)cc2)oc1N1CCCCCC1 | inconclusive: 10 µM [activator, partial curve] | – |
| COC(=O)c1ccccc1NC1=C/C(=N\S(=O)(=O)c2ccc(C(=O)O)cc2)c2ccccc2C1=O | – | inactive: -74.5% |
| N/C(=N\OC(=O)c1cc(Br)ccc1Cl)c1ccccn1 | – | inactive: -3.17% |
| COc1ccc(Cc2nnc(SCC(=O)N(C)c3ccccc3)o2)cc1 | inconclusive: 22.4 µM [activator, single point] | – |
| CC(C)(CNC(=O)c1ccc(S(=O)(=O)Nc2ccc(Cl)cc2)cc1)N1CCOCC1 | inconclusive: 28.2 µM [activator, single point] | – |
| COc1ccc(NC(=S)N2CCC(C(=O)c3ccc(Cl)cc3)CC2)cc1 | inconclusive: 28.2 µM [activator, single point] | – |
| O=C(c1ccc(Cl)c(S(=O)(=O)Nc2ccc(F)cc2)c1)N1CCN(c2ccccn2)CC1 | – | inactive: -11.8% |
| COc1cc(C(=O)NCCOc2cc(C)ccc2C(C)C)cc(OC)c1OC | – | inactive: -61.6% |
| O=C(O)C1(c2ccccc2)CCN(S(=O)(=O)c2cccc(Cl)c2)CC1 | inconclusive: 5.01 µM [activator, single point] | – |
| c1ccc(Oc2cc(-n3cccn3)ncn2)cc1 | inconclusive: 5.01 µM [activator, single point] | – |
| CCc1ccc(OCC(=O)NC(NC(=S)Nc2ccccc2OC)C(Cl)(Cl)Cl)cc1 (stereo not given) | – | inactive: -17.7% |
| CC(OC(=O)CC1CC2CCC1C2)C(=O)Nc1ccc(C(N)=O)cc1 (stereo not given) | inconclusive: 5.01 µM [activator, single point] | – |
| Cc1ccc(CNC(=O)c2cc(-c3cc(C)cc(C)c3O)n[nH]2)cc1 | inconclusive: 28.2 µM [activator, single point] | – |
| CC(C)(C)C(=O)/C(=C/c1ccc(Cl)cc1)n1cncn1 | – | inactive: -70.3% |
| Cc1nn(C)c(C)c1/C=C(/C(=O)C(C)(C)C)n1cncn1 | – | inactive: -56.7% |
| CCN(CC)c1ccc(/C=N/N2CCN(c3ccccc3OC)CC2)cc1 | inconclusive: 5.01 µM [activator, single point] | – |
| CCOC(=O)Cc1csc(NC(=O)c2cc(C)on2)n1 | inconclusive: 4.47 µM [activator, full curve, poor fit] | – |
| CC(C)C(=O)N1CCC(Cc2ccccc2)CC1 | inconclusive: 28.2 µM [activator, single point] | – |
| O=C(c1ccco1)N1CCN(c2ncnc3sc4c(c23)CCC4)CC1 | inconclusive: 3.16 µM [activator, partial curve, poor fit] | – |
| Nc1ccccc1Nc1cc(-c2ccccc2)nn1-c1cccc(Cl)c1 | inconclusive: 14.1 µM [activator, single point] | – |
| Cc1ccc2c(C)nc(N/C(N)=N/S(=O)(=O)c3ccccc3)nc2c1 | – | inactive: 16.6% |
| COC(=O)Cn1c(=NC(=O)CSC(C)=O)sc2ccccc21 | – | inactive: -19.3% |
| Cc1ccc(SCC(=O)NC(=O)Nc2ccc3c(c2)OCCO3)c(C)c1 | – | inactive: 0.3% |
| COc1ccc(C(=O)NNC(=O)c2ccc(S(=O)(=O)N3CCOCC3)cc2)cc1 | inconclusive: 28.2 µM [activator, single point] | – |

Single records, as listed above. Order of values: Potency | activation
COc1ccc(Cc2nnc(SCC(=O)N(C)c3ccccc3)o2)cc1 is entered as inconclusive: 22.4 µM [activator, single point] | –
CC(C)(CNC(=O)c1ccc(S(=O)(=O)Nc2ccc(Cl)cc2)cc1)N1CCOCC1 is entered as inconclusive: 28.2 µM [activator, single point] | –
COC(=O)c1ccccc1NC1=C/C(=N\S(=O)(=O)c2ccc(C(=O)O)cc2)c2ccccc2C1=O is entered as – | inactive: -74.5%
O=C(c1ccc(Cl)c(S(=O)(=O)Nc2ccc(F)cc2)c1)N1CCN(c2ccccn2)CC1 is entered as – | inactive: -11.8%

Carrying on:

| Structure (SMILES) | Potency | activation |
| --- | --- | --- |
| c1cnc2ccc3ncccc3c2c1 | inconclusive: 2.82 µM [activator, partial curve, poor fit] | – |
| COc1ccc(-c2ccc(OC)c([C@H]3[C@H]4C=CC[C@@H](C)[C@@H]4C(=O)N3Cc3ccccc3)c2)cc1C | – | inactive: -30.3% |
| COc1cccc(/C=N/Nc2nc(Nc3ccc([N+](=O)[O-])cc3)nc(N3CCCC3)n2)c1O | – | inactive: 11% |
| COc1cc(C(=O)NC(=S)NC(C)C)cc(OC)c1OC | – | inactive: -9.47% |
| Cc1ccc(C(=O)N/C(=C/c2cccs2)C(=O)NCC2CCCO2)cc1 (stereo not given) | inconclusive: 5.01 µM [activator, single point] | – |
| CCCc1ccc2oc(C(=O)N(C)CCn3ccnc3C)c(C)c2c1 | inconclusive: 5.01 µM [activator, single point] | – |
| CCc1ccccc1OCCCCN1CCCCC1 | – | inactive: -16.6% |
| CCOC(=O)c1sc(NC(=O)C(CC)OC(=O)c2ccco2)nc1C (stereo not given) | – | inactive: 0% |
| COc1ccccc1NC(=O)CCc1nnc2ccc(N3CCC4(CC3)OCCO4)nn12 | inconclusive: 5.01 µM [activator, single point] | – |
| COc1ccc(NC(=O)Nc2ccc3c(c2)CCC3)c(OC)c1 | inconclusive: 5.01 µM [activator, single point] | – |
| CCCCNC(=S)N1CCN(CC)CC1 | inconclusive: 4.47 µM [activator, single point] | – |
| O=C(NCCN1CCN(C(=O)c2cccc([N+](=O)[O-])c2)CC1)C(=O)NCc1ccc(Cl)cc1 | inconclusive: 28.2 µM [activator, single point] | – |
| CC1(C)CC(=O)C2=C(C1)Nc1ncnn1C2c1ccccn1 (stereo not given) | – | inactive: 15.7% |
| O=C(c1ccc([N+](=O)[O-])o1)N1CCc2ccccc2C1 | – | inconclusive: -61.7% [activator] |
| O=C(O)COc1ccccc1/C=N/NC(=O)CNC(=O)c1ccc(F)cc1 | inconclusive: 28.2 µM [activator, single point] | – |
| O=C(N/N=C/c1ccc(F)cc1)c1cccc(NC(=O)c2ccc(F)cc2)c1 | inconclusive: 2.82 µM [activator, partial curve, poor fit] | – |
| Cc1ccc(O)c(Nc2ncnc3ccccc23)c1 | inconclusive: 2.51 µM [activator, partial curve, poor fit] | – |
| COc1ccc(CNC(=O)COc2ccc(S(=O)(=O)N3CCCCC3)cc2)cc1 | inconclusive: 1.41 µM [activator, partial curve, poor fit] | – |
| COc1ccc(CCNC(=O)CCCn2ncn3c(cc4occc43)c2=O)c(OC)c1 | inconclusive: 2.82 µM [activator, single point] | – |
| C=CCNS(=O)(=O)c1ccc(OC)c(C)c1 | inconclusive: 28.2 µM [activator, single point] | – |
| Cc1ccc(Nc2nc3c(c(=O)[nH]2)CCCC3)cc1 | – | inactive: 18.4% |
| CN(C)c1ccc(/C=C2\Oc3ccc(C#Cc4cccc(N)c4)cc3C2=O)cc1 | – | inactive: -9.82% |
